Drawing on article PMC10916869, this text covers binding for one substance.

Results are given in words; binding and its absence hold for the method and conditions named. In cells and extracts the contact can be indirect. Binding calls can cover weak binding; strength is not graded here.

For experiment [1], the target named is T1, CER-TMED9 (SS(lactase)-CER-TMED9) (human) (UniProt Q9BVK6).
T1 sequence: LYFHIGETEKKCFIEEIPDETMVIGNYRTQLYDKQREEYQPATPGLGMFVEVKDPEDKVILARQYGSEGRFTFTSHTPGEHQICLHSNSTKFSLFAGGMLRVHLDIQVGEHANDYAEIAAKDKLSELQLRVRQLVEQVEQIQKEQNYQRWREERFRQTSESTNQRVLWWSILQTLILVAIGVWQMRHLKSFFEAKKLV
The experiment is described as follows: co-IP; GFP-tag (Venus, Cerulean, YFP) pull-down with the μMACS GFP Isolation Kit from N2a cells 48 h after transient transfection; lysis, incubation and washes in 1% CHAPS, 50 mM HEPES pH 7.4, 100 mM NaCl, 2 mM CaCl2 at 4°C; eluates immunoblotted; untransfected parental cells as control; Figure 3C is a single experiment (n = 1). For orientation: A western blot detects proteins with antibodies after separation by electrophoresis.

Experiment [2] concerns the target T2, CER-TMP21 (SS(TMP21)-CER-TMP21) (rat) (UniProt Q63584).
T2 sequence: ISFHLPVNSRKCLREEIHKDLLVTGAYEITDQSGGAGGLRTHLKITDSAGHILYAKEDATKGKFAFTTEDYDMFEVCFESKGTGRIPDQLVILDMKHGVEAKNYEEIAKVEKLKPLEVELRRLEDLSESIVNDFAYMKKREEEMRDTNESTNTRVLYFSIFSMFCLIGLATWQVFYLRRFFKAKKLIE
Described as above.

For the substance SNAP-FLAG-ATZ (SS(lactase)-S-FLAG-ATZ), the binding entry in experiment [1] and in experiment [2] was “binds” each time.
